The target in the experiment is Importin 7 (xlImp7) of the purified trimeric complex Impβ:Imp7:H1.11L-chick (X. laevis) (UniProt O42480). The experiment is described as follows: cross-linking.

Sequences of proteins named here, by UniProt entry; tags and fusion partners are left off. A change or cut given only in a name is not applied to a line headed by its entry.
UniProt O42480: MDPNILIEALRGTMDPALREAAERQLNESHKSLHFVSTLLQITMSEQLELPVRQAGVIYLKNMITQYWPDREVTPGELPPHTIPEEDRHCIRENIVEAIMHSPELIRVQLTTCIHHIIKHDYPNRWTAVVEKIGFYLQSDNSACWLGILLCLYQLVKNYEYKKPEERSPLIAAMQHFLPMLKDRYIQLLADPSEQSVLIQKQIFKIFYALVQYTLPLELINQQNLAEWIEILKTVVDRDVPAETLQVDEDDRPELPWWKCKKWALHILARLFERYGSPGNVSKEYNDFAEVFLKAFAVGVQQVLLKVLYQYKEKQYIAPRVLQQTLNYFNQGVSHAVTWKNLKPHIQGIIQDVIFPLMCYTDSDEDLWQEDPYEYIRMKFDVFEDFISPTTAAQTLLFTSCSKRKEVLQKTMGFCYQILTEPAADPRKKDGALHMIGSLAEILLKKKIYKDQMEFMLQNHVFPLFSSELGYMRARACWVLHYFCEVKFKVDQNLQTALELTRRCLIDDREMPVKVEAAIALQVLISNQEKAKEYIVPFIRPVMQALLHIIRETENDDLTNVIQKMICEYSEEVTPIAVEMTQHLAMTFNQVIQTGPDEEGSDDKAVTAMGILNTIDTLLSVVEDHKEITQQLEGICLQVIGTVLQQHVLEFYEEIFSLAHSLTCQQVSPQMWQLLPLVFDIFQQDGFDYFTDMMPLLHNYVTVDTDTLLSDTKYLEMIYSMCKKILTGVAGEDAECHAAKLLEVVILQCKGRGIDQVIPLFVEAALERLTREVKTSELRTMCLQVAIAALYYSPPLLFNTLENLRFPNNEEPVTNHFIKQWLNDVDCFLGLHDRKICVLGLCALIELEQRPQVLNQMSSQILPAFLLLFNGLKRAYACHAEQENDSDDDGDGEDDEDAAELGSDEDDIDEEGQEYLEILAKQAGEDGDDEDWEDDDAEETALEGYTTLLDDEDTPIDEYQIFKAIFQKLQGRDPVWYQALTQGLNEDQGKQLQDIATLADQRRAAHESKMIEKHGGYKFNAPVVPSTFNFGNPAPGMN

These are yes or no findings as the source states them, for the method shown. Binding calls can cover weak binding; strength is not graded here.

B1: Histone H1.11L from chicken (natural protein, chicken (Gallus gallus), UniProt P08287 1-225, looked up)
chain: MSETAPAPAAEAAPAAAPAPAKAAAKKPKKAAGGAKARKPAGPSVTELITKAVSASKERKGLSLAALKKALAAGGYDVEKNNSRIKLGLKSLVSKGTLVQTKGTGASGSFRLSKKPGEVKEKAPKKKASAAKPKKPAAKKPAAAAKKPKKAVAVKKSPKKAKKPAASATKKSAKSPKKVTKAVKPKKAVAAKSPAKAKAVKPKAAKPKAAKPKAAKAKKAAAKKK
For B1, the binding entry was “binds”.

Values taken from paper doi:10.1101/2025.08.04.668392 (bioRxiv, 2025).
